The other results are listed elsewhere or left out.

By UniProt entry, the sequences of proteins in these tests, tags left out. Where a name states a change or a piece, a line headed by the entry shows the natural chain unless it says otherwise.
UniProt Q96CS3: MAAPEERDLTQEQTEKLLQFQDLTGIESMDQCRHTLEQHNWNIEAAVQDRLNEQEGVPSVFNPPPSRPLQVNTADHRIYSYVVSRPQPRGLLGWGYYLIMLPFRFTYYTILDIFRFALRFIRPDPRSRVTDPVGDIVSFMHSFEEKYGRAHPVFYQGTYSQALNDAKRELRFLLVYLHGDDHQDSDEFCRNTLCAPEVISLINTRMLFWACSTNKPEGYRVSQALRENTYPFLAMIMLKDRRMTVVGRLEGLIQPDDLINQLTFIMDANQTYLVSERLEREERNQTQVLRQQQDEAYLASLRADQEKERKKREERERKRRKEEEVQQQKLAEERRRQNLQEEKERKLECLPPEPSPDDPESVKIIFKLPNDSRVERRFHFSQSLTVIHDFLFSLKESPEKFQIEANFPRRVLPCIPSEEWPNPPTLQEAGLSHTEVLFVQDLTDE
UniProt Q15125: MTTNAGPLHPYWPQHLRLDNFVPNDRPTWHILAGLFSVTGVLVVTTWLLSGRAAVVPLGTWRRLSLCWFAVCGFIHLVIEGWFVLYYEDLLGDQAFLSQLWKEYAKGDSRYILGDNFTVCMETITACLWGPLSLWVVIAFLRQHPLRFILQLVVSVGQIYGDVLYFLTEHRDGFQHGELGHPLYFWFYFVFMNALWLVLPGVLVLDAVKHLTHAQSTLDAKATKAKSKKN
UniProt Q9H8V3: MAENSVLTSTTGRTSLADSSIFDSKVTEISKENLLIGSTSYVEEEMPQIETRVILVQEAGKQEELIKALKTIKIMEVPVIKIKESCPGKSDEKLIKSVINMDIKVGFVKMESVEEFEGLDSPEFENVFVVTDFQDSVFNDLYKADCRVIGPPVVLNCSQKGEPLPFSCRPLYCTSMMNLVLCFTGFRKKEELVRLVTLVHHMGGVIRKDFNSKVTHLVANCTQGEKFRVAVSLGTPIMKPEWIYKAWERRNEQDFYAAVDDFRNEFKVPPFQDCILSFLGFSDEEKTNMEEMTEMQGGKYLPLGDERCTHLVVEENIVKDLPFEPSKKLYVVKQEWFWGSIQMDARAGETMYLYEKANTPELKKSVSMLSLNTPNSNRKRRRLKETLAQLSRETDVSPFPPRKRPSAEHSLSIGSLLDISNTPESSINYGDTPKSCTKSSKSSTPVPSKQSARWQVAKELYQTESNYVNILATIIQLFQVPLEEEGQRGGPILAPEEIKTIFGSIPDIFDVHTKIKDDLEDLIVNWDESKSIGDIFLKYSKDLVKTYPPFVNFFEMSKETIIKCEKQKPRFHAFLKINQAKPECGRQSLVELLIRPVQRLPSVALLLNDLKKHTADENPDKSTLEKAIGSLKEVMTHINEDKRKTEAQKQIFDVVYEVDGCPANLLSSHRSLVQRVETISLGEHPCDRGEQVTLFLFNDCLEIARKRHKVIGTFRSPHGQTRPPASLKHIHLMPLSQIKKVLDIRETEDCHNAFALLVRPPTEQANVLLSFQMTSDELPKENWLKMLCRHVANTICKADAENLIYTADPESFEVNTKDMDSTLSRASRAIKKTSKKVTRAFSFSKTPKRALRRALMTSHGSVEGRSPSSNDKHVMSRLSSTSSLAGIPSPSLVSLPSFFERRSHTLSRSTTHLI
UniProt Q01658: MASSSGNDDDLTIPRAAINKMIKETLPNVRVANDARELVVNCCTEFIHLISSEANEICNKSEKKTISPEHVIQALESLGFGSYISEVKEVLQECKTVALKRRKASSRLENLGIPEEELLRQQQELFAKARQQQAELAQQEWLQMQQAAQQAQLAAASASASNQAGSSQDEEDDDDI
UniProt P07814: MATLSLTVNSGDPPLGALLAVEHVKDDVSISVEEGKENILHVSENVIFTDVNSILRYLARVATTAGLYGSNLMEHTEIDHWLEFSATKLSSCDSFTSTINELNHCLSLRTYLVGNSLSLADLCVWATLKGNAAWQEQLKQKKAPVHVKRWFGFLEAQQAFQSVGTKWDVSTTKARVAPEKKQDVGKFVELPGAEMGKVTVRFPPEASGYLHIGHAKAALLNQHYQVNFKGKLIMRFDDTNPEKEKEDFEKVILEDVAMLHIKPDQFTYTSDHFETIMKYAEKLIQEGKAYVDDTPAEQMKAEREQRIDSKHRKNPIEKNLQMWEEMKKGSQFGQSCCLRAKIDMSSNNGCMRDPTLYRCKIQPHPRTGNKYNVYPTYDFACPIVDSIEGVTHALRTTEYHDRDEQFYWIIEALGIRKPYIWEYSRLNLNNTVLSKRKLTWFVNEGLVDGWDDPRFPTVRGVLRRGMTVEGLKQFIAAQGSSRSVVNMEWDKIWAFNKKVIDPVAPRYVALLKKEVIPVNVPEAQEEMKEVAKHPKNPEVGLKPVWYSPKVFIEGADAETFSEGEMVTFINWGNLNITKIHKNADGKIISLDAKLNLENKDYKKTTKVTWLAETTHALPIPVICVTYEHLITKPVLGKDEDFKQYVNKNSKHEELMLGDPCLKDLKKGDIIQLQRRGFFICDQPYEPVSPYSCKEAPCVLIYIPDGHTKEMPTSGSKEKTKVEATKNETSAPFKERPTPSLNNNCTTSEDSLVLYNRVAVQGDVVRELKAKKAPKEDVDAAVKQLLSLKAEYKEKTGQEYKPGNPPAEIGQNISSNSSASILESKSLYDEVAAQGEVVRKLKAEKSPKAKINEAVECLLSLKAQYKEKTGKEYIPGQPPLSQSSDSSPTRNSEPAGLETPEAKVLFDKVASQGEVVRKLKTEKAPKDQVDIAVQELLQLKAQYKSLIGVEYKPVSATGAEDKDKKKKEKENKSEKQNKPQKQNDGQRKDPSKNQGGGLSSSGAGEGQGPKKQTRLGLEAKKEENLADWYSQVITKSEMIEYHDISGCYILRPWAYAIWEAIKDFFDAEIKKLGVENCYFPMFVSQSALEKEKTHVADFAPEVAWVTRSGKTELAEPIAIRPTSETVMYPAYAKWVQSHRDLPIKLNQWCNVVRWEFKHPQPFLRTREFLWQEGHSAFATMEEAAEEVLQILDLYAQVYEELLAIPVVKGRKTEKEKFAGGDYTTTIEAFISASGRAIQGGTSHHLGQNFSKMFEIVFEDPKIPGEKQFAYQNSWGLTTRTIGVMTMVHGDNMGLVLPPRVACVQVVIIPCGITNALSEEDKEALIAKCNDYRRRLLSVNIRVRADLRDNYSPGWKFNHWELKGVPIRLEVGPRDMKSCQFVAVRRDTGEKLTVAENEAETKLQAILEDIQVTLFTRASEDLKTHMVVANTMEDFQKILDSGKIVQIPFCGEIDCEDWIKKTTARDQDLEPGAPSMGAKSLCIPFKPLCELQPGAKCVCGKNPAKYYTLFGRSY
UniProt O00418: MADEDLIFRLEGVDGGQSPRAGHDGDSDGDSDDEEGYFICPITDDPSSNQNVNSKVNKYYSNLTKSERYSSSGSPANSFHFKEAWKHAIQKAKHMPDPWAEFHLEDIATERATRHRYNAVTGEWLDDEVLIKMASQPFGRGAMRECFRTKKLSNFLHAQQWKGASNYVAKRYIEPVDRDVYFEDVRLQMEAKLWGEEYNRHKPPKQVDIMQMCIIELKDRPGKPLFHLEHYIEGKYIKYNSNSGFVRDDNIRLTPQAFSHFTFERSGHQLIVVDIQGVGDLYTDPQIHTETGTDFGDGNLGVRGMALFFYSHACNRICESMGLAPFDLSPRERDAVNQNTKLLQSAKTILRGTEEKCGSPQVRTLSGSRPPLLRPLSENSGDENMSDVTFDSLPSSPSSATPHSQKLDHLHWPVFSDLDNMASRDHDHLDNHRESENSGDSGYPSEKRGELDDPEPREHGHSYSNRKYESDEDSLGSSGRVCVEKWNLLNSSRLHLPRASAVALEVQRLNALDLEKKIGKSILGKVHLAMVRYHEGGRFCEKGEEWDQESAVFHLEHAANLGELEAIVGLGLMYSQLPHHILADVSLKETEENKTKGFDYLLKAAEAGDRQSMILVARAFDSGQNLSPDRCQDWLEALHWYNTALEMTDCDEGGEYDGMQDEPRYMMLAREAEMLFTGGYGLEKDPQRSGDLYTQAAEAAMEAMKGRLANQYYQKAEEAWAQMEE
UniProt P63167, whole entry: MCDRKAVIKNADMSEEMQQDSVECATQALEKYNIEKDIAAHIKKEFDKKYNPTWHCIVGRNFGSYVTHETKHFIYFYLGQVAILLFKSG
UniProt Q7L775: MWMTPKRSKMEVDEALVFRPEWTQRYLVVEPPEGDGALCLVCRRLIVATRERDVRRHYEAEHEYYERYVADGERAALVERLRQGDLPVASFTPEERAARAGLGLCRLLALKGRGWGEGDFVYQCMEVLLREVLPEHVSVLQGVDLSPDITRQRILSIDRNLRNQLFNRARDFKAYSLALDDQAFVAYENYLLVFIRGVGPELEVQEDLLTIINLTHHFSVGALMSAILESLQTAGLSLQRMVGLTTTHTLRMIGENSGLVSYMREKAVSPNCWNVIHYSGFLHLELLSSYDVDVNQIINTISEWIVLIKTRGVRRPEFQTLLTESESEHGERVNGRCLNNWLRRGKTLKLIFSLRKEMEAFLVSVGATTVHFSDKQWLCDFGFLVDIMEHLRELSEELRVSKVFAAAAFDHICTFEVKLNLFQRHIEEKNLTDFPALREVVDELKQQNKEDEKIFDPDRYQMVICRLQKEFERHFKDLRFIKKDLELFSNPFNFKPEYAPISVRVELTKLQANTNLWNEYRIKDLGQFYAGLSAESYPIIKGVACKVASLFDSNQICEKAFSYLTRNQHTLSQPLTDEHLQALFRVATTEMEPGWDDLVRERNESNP
UniProt P41162: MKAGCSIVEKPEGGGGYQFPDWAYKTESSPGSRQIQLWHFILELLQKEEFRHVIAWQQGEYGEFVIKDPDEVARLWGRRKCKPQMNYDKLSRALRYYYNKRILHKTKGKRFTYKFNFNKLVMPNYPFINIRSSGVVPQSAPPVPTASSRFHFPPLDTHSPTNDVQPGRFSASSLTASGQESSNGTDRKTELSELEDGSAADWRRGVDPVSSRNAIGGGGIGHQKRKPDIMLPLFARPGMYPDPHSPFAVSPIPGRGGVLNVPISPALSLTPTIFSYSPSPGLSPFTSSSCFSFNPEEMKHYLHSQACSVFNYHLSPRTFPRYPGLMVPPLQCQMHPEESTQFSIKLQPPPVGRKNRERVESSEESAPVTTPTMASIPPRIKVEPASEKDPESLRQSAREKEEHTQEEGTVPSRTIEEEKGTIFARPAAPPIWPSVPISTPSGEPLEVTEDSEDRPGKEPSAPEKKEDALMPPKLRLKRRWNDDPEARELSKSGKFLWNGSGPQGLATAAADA
UniProt Q5VST6: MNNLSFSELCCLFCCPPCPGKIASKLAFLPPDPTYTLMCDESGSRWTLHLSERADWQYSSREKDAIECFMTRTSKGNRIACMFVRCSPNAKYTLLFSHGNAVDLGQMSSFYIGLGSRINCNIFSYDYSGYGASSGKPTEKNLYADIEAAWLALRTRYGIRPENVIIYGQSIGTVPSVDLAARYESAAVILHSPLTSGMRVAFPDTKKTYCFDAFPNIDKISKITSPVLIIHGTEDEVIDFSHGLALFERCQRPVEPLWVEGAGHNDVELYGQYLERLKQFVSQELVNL
UniProt Q16254: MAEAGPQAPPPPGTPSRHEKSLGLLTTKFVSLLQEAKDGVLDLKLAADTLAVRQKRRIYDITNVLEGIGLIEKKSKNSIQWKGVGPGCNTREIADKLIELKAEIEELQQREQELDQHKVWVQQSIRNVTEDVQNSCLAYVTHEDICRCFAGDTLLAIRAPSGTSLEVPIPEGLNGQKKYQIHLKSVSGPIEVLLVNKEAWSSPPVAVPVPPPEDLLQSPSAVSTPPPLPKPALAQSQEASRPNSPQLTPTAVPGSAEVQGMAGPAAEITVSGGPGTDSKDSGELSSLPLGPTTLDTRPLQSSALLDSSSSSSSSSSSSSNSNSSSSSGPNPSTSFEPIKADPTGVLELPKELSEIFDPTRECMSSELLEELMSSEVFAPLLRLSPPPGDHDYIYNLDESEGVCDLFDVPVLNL
UniProt Q9NQZ7: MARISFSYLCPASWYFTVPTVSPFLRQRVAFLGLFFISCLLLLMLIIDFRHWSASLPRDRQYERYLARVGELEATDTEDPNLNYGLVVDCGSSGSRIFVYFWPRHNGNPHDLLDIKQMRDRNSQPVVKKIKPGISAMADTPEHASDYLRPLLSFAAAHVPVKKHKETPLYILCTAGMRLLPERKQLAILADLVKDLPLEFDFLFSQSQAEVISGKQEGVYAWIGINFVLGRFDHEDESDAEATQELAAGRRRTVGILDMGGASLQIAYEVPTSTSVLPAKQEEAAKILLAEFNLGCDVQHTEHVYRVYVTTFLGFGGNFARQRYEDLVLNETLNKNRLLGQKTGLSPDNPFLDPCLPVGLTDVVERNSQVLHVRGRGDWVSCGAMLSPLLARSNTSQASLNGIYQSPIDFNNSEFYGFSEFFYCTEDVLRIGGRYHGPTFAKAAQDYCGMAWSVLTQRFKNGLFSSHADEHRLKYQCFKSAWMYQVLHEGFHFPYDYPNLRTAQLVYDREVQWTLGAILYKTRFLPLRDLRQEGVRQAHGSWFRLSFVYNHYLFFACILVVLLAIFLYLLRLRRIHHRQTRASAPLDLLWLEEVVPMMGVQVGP

Compound in this test: COc1ccc(Cn2ccc3cc(C)c(C(=O)NO)cc32)cc1
Kind of test: dose-dependent thermal stabilisation call (2D-TPP, DLPTP, 10% FDR) (binary (1 = stabilised)); higher = stabilised by the compound. Particulars: system: HL-60 intact cells; concentration range 0.04-10 µM. How it is done:
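2D thermal proteome profiling in intact HL-60 cells treated with BRD-3811 (0, 0.04, 0.29, 2, 10 uM) for 90 min at 37 C, then heated 3 min at one of 12 temperatures (42-63.9 C). Soluble protein was quantified by TMT10 MS. The value is the DLPTP call of the paper: dose-dependent thermal stabilisation over all temperatures at 10% FDR (F-test of a dose-response against a flat model); one experiment, one call per tested protein.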
For EIF4H (UniProt Q15056), the “dose-dependent thermal stabilisation call” value was inactive: 0.
As to FADS1 (UniProt O60427), the “dose-dependent thermal stabilisation call” value is inactive: 0.
Turning to EXOSC6 (UniProt Q5RKV6), the “dose-dependent thermal stabilisation call” value is inactive: 0.
With ECH1 (UniProt Q13011) the figure was inactive: 0.
With FAF2 (UniProt Q96CS3) the figure was inactive: 0.
With FAM36A (UniProt Q5RI15) the figure was inactive: 0.
On to DSC1 (UniProt Q08554), for which the “dose-dependent thermal stabilisation call” value is inactive: 0.
Turning to EBP (UniProt Q15125), the “dose-dependent thermal stabilisation call” value is inactive: 0.
For FAM120A (UniProt Q9NZB2), the “dose-dependent thermal stabilisation call” value was inactive: 0.
ECT2 (UniProt Q9H8V3): the “dose-dependent thermal stabilisation call” value is inactive: 0.
DR1 (UniProt Q01658): the “dose-dependent thermal stabilisation call” value is inactive: 0.
Regarding FAM129A (UniProt Q9BZQ8), the “dose-dependent thermal stabilisation call” value was inactive: 0.
With E2F6 (UniProt O75461), the “dose-dependent thermal stabilisation call” value is inactive: 0.
Turning to ESPL1 (UniProt Q14674), the “dose-dependent thermal stabilisation call” value was inactive: 0.
For the target EXOSC9 (UniProt Q06265), the “dose-dependent thermal stabilisation call” value is inactive: 0.
As to EPRS (UniProt P07814), the “dose-dependent thermal stabilisation call” value was inactive: 0.
As for EEF2K (UniProt O00418), the “dose-dependent thermal stabilisation call” value is inactive: 0.
In the case of DSG1 (UniProt Q02413), the “dose-dependent thermal stabilisation call” value is inactive: 0.
With EIF2B5 (UniProt Q13144) the figure was inactive: 0; with DTWD1 (UniProt Q8N5C7), inactive: 0.
On to EXOC6 (UniProt Q8TAG9), for which the “dose-dependent thermal stabilisation call” value was inactive: 0.
Consider EIF4E2 (UniProt O60573), for which the “dose-dependent thermal stabilisation call” value was inactive: 0.
Then DYNLL1 (UniProt P63167), with inactive: 0; and EDC4 (UniProt Q6P2E9), with inactive: 0.
In the case of EXTL3 (UniProt O43909), the “dose-dependent thermal stabilisation call” value is inactive: 0.
Then EML3 (UniProt Q32P44), with inactive: 0.
Turning to FAM136A (UniProt Q96C01), the “dose-dependent thermal stabilisation call” value is inactive: 0.
On to ERC1 (UniProt Q8IUD2), for which the “dose-dependent thermal stabilisation call” value was inactive: 0.
As for EIF5B (UniProt O60841), the “dose-dependent thermal stabilisation call” value was inactive: 0.
EPC1 (UniProt Q9H2F5): the “dose-dependent thermal stabilisation call” value is inactive: 0.
Then EPM2AIP1 (UniProt Q7L775), with inactive: 0; and ETV3 (UniProt P41162), with inactive: 0.
Turning to EIF2S3 (UniProt P41091), the “dose-dependent thermal stabilisation call” value is inactive: 0.
As for ERCC5 (UniProt P28715), the “dose-dependent thermal stabilisation call” value was inactive: 0.
Regarding EIF1AP1, the “dose-dependent thermal stabilisation call” value was inactive: 0.
With EI24 (UniProt O14681) the figure was inactive: 0; with FAM108B1 (UniProt Q5VST6), inactive: 0.
As for E2F4 (UniProt Q16254), the “dose-dependent thermal stabilisation call” value is inactive: 0.
Then EMD (UniProt P50402), with inactive: 0; and ENTPD7 (UniProt Q9NQZ7), with inactive: 0.

(Values after the supplement of paper PMC7666118.)
